These are yes or no findings as the source states them, for the method shown. Some binding calls cover weakened binding; strength is not graded here.
Key:
[1] = biological target: T1, NF-κB p65 subunit in nuclear extracts of RANKL-treated mouse RAW 264.7 cells (mouse), Q04207; experiment: EMSA supershift assay, nuclear extracts of RANKL-treated RAW 264.7 cells (FIG. 18C); conditions: remark: other sources report otherwise
T1 chain: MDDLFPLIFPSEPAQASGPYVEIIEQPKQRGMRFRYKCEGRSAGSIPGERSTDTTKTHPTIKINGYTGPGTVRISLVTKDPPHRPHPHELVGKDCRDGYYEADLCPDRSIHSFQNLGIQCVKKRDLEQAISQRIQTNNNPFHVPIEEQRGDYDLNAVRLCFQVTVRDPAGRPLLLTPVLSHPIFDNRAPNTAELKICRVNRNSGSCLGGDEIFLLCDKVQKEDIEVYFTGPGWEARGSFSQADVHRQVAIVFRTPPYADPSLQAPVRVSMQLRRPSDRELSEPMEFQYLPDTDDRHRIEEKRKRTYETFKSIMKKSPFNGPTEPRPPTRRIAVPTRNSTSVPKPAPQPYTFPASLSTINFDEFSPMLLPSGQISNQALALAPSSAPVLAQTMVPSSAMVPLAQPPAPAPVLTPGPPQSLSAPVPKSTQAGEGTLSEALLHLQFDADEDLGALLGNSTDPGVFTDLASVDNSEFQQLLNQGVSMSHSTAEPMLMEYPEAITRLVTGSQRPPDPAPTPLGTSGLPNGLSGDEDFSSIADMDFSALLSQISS

[2] = biological target: T1, NF-κB p65 subunit in nuclear extracts …; experiment: EMSA supershift assay, nuclear extracts of RANKL-treated RAW 264.7 cells; conditions: remark: other sources report otherwise

B1: NF-κB p50 subunit in nuclear extracts of RANKL-treated mouse RAW 264.7 cells, P25799 1-431 (protein, UniProt P25799 1-431, looked up)
chain: MADDDPYGTGQMFHLNTALTHSIFNAELYSPEIPLSTDGPYLQILEQPKQRGFRFRYVCEGPSHGGLPGASSEKNKKSYPQVKICNYVGPAKVIVQLVTNGKNIHLHAHSLVGKHCEDGVCTVTAGPKDMVVGFANLGILHVTKKKVFETLEARMTEACIRGYNPGLLVHSDLAYLQAEGGGDRQLTDREKEIIRQAAVQQTKEMDLSVVRLMFTAFLPDSTGSFTRRLEPVVSDAIYDSKAPNASNLKIVRMDRTAGCVTGGEEIYLLCDKVQKDDIQIRFYEEEENGGVWEGFGDFSPTDVHRQFAIVFKTPKYKDVNITKPASVFVQLRRKSDLETSEPKPFLYYPEIKDKEEVQRKRQKLMPNFSDSFGGGSGAGAGGGGMFGSGGGGGSTGSPGPGYGYSNYGFPPYGGITFHPGVTKSNAGVTHG
binding [1]: binds
binding [2]: binds

— US20060019907A1, “Guggulsterone: an inhibitor of nuclear factor - kappaB and IkappaBalpha kinase activation and uses thereof” (Research Development Foundation, priority 2004, published 2006)
